Measured values taken from PubChem BioAssay AID493014 (National Center for Advancing Translational Sciences (NCATS), 2011).
About 170 (0.05%) of roughly 340,000 compounds were called active. The inconclusive results got no clear call from the source; some entries with a clear call stand among them for comparison. The call rests on the fitted dose curve; in most records, active means well fitted inhibition curve with a large enough effect in the signal ratio, with a control signal flat (not every such curve was filed as active); inconclusive means small, poorly fitted or top-dose-only effect, or effect the other way, or a change in a side signal; inactive means flat fitted curve, though single readings scatter; the % refers to the signal ratio. A potency beside an inconclusive call is a rough fit, not a confirmed value.

experiment: qHTS Assay to Find Inhibitors of Chronic Active B-Cell Receptor Signaling; details: ABC-DLBCL IkBa-CBG/CBR reporter, luminescence ratio (green luciferase fused to IkBa over red control in TMD8 lymphoma cells), 4 h; activity change, negative = inhibition: at 46.1 µM (top of the series);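 on activity change, negative = inhibition: plate controls were basal doxycycline-induced cells for no effect and cells given 10 µM MG132 for full effect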
Method in brief: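 Concentration-response series (up to 46 uM) were applied to TMD8 dual-reporter cells for 4 h at 37C with doxycycline. Green/red ratio, after filter-overlap correction, defined %Activity; red signal alone was normalised to basal cells and zero luminescence.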
Potency means the concentration at half of the fitted maximal effect.

SMILES	activity change, negative = inhibition	Potency
COc1cccc(N(CC(=O)N2CCCC2)S(C)(=O)=O)c1	inconclusive: 6.32%	–
Cc1ccc2cccc(OCc3nnc(SCC(=O)O)n3C)c2n1	inconclusive: -0.348%	–
CCSCc1nc2ccccn2c1Br	–	inconclusive: 22.4 µM [falling, partial curve, poor fit]
CCOc1ccccc1/C=C/C(=O)N1CCN(C(=O)c2ccco2)CC1	inconclusive: -9.22%	–
c1ccc(COc2ccccc2CNC2CCCC2)cc1	inconclusive: -13.1%	–
COc1cc(CSc2nnnn2-c2ccc(C)cc2)cc(OC)c1OC	inactive: -3.16%	–
CCOCCCNCc1cn(-c2ccc(F)cc2F)nc1-c1ccccc1C	–	inconclusive: 12.6 µM [falling, single point]
COC(=O)c1c(C)[nH]c(C(=O)OC(C)C(=O)N(C)C2CCCCC2)c1C (centres undefined)	–	inconclusive: 29.1 µM [activator, single point]
O=C(Nc1ccccn1)C1CCN(c2ncnc3c2nc2n3CCCCC2)CC1	inactive: 0.0362%	–
CSCC(O)Cn1ncc2ccccc2c1=O (centres undefined)	inconclusive: 6.66%	–
Cc1ccc(S(=O)(=O)N2CCN(C(=O)CN3C(=O)NC4(CCOc5ccccc54)C3=O)CC2)cc1 (centres undefined)	inconclusive: -2.02%	–
CCCN1CCC(=O)N([C@H](CSc2ccccc2)Cc2ccccc2)CC1	–	inconclusive: 10 µM [falling, single point]
CCOc1cc(/C=N/n2cnnc2)ccc1OCC(=O)Nc1ccccc1OC	inconclusive: -17.9%	–
Cc1cccc(NC(=O)CCc2ccccc2)c1C	inactive: -2.43%	–
CCc1ccc(CNC(=O)c2ccc3nc(C4CCCCC4)oc3c2)nc1	inactive: 0.0639%	–
N#C/C(=C/c1ccc(O)c([N+](=O)[O-])c1)C(=O)Nc1ccccc1	inconclusive: -22.7%	–
Cc1cc(C(=O)OCC(=O)Nc2cccnc2Cl)c2ccccc2n1	inconclusive: -14.5%	–
COc1cccc(C(=O)Nc2ncc3c(n2)CC(C)(C)CC3=O)c1	–	inconclusive: 22.4 µM [falling, single point]
COCCCNC(=O)Cn1nnc(-c2ccc(NC(=O)c3ccc(F)cc3)cc2)n1	inconclusive: 2.99%	–
COc1ccccc1/C=C/C(=O)NCCC1=CCCCC1	–	inconclusive: 35.5 µM [falling, single point]
Oc1cc(NCc2cccnc2)ccc1-c1nc2ccccc2o1	inactive: 12.4%	–

Arranged by count of non-hydrogen atoms (low to high): some entries from above.
SMILES	activity change, negative = inhibition	Potency
CSCC(O)Cn1ncc2ccccc2c1=O (centres undefined)	inconclusive: 6.66%	–
COc1cccc(N(CC(=O)N2CCCC2)S(C)(=O)=O)c1	inconclusive: 6.32%	–
COc1cc(CSc2nnnn2-c2ccc(C)cc2)cc(OC)c1OC	inactive: -3.16%	–

Continued:

SMILES	activity change, negative = inhibition	Potency
CC(=O)c1c(COC(=O)c2ccncc2)nc2ccccc2[n+]1[O-]	inactive: 1.47%	–
C=CCSc1nnc(NC(=O)c2cccc(S(=O)(=O)N3CCOCC3)c2)s1	inconclusive: -12.9%	–
CC(C)/C(=N\NC(=O)Nc1ccccc1)c1ccccc1	–	inconclusive: 11.2 µM [rising, partial curve, poor fit]
Cn1nccc1-c1cc(Cl)cc(Cl)c1O	inconclusive: 7.24%	–
Cc1ccc(S(=O)(=O)Nc2c(NC3CCCCC3)c3ccccc3oc2=O)cc1C	inconclusive: -23.2%	–
BrC(=C\c1ccccc1)/C=N/Nc1ccc2nncn2n1	inconclusive: 8.39%	–
Cc1ccc(NC(=O)CN(C)C(=O)CSc2nc(C)cs2)cc1	inactive: 0.328%	–
COc1ccc(Nc2nc3ccccc3nc2-n2nc(C)cc2C)cc1	inconclusive: 28.2%	–
O=C(CSc1ccc2nnc(-c3cccc(F)c3)n2n1)NCC1CCCO1 (centres undefined)	inconclusive: 0.401%	–
O=C(CCNC(=O)c1ccccc1Cl)Nc1cc(S(=O)(=O)N2CCOCC2)ccc1N1CCOCC1	–	inconclusive: 17.8 µM [falling, single point]
CN(C)CCNC(=O)c1cc2c(s1)-c1ccccc1OC2	–	inconclusive: 29.1 µM [falling, single point]
O=C(N/N=C/c1ccc(Cl)cc1Cl)C(=O)NC1CC1	inconclusive: 2.19%	–
CN(C)c1nc(=NCc2ccco2)ss1	inconclusive: 39.5% [cytotoxic]	–
Cc1cccc(NC(=O)c2cc(-c3ccc(C)c(C)c3O)n[nH]2)c1	–	inconclusive: 15.8 µM [falling, partial curve]
O=S(=O)(Nc1ccc(-c2nc3cccnc3s2)cc1)c1ccc(Cl)s1	inconclusive: 3.12%	–
O=C(/C=C1\SC(=O)NC1=O)Nc1ccc(C(=O)O)cc1	inconclusive: 0.722%	–
COc1cc(Nc2nc3ccccc3nc2NS(=O)(=O)c2ccc([N+](=O)[O-])cc2)cc(OC)c1OC	inactive: 13%	–
CC(=O)Nc1cc2nc(C)n(Cc3ccccc3)c2nc1C	inconclusive: 3.27%	–
CCC(=O)Nc1cccc(NC(=S)NC(=O)c2ccccc2C)c1	inconclusive: 302%	–
O=C1Nc2ccccc2C1Cc1ccccc1 (centres undefined)	inactive: -7.91%	–
COc1ccccc1NC(=O)CC1S/C(=N/N=C2\CCCc3ccccc32)NC1=O (centres undefined)	–	inconclusive: 12.6 µM [falling, partial curve]

As entered above.
For activity change, negative = inhibition, `O=S(=O)(Nc1ccc(-c2nc3cccnc3s2)cc1)c1ccc(Cl)s1` has the entry inconclusive: 3.12%
For Potency, `COc1ccccc1NC(=O)CC1S/C(=N/N=C2\CCCc3ccccc32)NC1=O` (centres undefined) has the entry inconclusive: 12.6 µM [falling, partial curve]

Remaining list, next part

SMILES	activity change, negative = inhibition	Potency
CN(C)CCCNC(=S)NCCNc1nc2cc3c(cc2cc1C#N)OCO3	inactive: -13%	–
C[C@@H](C(=O)O)[C@H]1C[C@]1(C)[C@H](NC(=O)OCc1ccccc1)c1ccccc1	inconclusive: 0.622%	–
Cc1ccc2[nH]c3c(c2c1)CC/C(=C/c1ccccc1)C3=O	–	inconclusive: 9.2 µM [rising, partial curve]
Cc1ccc(NC(=O)c2ccc3c(c2)OCCO3)cc1S(=O)(=O)Nc1cccc(Cl)c1	inconclusive: 25.4%	–
COc1ccc(O)c(CN2CCC(n3nccc3NC(=O)C3CCCC3)CC2)c1	inactive: 0.11%	–
O=S(c1ccc2ccccc2c1)c1cnns1 (centres undefined)	inconclusive: 15.1%	–
COc1cc(OC)cc(-c2c(-c3ccc(F)cc3)c3cc(-c4ccc5[nH]ccc5c4)ccc3n2C)c1	inconclusive: 12.3%	–
Cc1ccc(N=C2C(=S)N(c3ccc(C)cc3)C(=N)N2/N=C/c2ccc(Cl)cc2)cc1	inactive: -9.55%	–
COc1ccc(NC(=O)c2cc(CC(C)C)on2)cc1OC	inconclusive: 1.05%	–
Cc1c(C(=O)N(C)Cc2cccc(F)c2)oc2c(Cl)cccc12	inactive: 1.13%	–
CCN(Cc1nc(-c2ccc(OC)c(OC)c2)no1)C(=O)c1ccoc1C	inconclusive: 0.75%	–
O=C(CSc1ccccn1)Nc1ccc2c(c1)C(=O)c1ccccc1C2=O	inconclusive: 11%	–
Cc1[nH]n2c(=O)c3c(nc2c1-c1ccccc1)CCC3	–	inconclusive: 16.4 µM [falling, partial curve, poor fit]
COc1cc(OC)c(NC(=O)CCNS(=O)(=O)c2ccc3c(c2)CC(C)N3C(C)=O)cc1Cl (centres undefined)	inactive: -1.55%	–
CC(C)(CO)NC(=S)NCc1ccco1	inactive: 1.84%	–
CCc1ccc(NC2Nc3cc(C)nn3S2)cc1 (centres undefined)	inconclusive: 3.38%	–
O=C(Nc1ccc(Cl)cn1)Nc1ccc(Cl)cn1	inconclusive: 6.12%	–
CC1CN(CCOCCOc2ccccc2-c2ccccc2)CC(C)O1 (centres undefined)	inactive: -0.68%	–
O=C(NC1CCCCC1)c1ccc2c(c1)OCO2	–	inconclusive: 20 µM [falling, partial curve]
CNC(=O)c1ncoc1-c1ccc(Cl)cc1	inconclusive: 1.96%	–
Cc1cc(C)c(C(=O)CSc2nc(C)cc(=O)[nH]2)c(C)c1	inconclusive: -0.959%	–

SMILES	activity change, negative = inhibition	Potency
Nc1[nH]n(-c2ccccc2)c(=O)c1N=Nc1ccc2c(c1)OCO2	inconclusive: 16.8%	–
CC(C)(C)OC(=O)[C@H](Cc1ccccc1)NC(=O)c1nc[nH]c1C(=O)NCC(=O)OCc1ccccc1	inactive: 15.3%	–
O=C(NC1CCCCC1)C(=S)NCCc1ccccc1	inactive: 1.33%	–
COc1ccc(OCc2cc(C(=O)N3CCC(OC)CC3)no2)c2ccccc12	inactive: -15.3%	–
Cc1ccc(NC(=O)Cn2cnc3sc(C(=O)NCc4ccco4)c(C)c3c2=O)cc1Cl	inconclusive: 8.74%	–
O=C(CCn1c(=O)c2ccccc2n(CC(=O)NC2CCCC2)c1=O)NCc1ccco1	inconclusive: -7.58%	–
NC(=O)c1ccc(NC(=O)COC(=O)C2CC(=O)N(Cc3ccccc3)C2)cc1 (centres undefined)	inactive: -4.98%	–
Cc1sc2ncnc(N=Nc3c(O)[nH]c4ccccc34)c2c1C	–	inconclusive: 0.58 µM [falling, partial curve, poor fit]
CC1=C(C#N)C(c2ccc3ncccc3c2)C(C#N)=C(C)N1	inconclusive: -8.59%	–
O=c1[nH]c2cc(Br)cnc2nc1/C=C(\O)c1ccc(F)cc1	–	inconclusive: 3.55 µM [falling, partial curve]
CCC(C)c1ccc(NC(=S)NCc2ccccn2)cc1 (centres undefined)	–	inconclusive: 31.6 µM [falling, partial curve, poor fit]
COc1cccc(NC(=S)/C(=C(\[O-])c2ccc([N+](=O)[O-])cc2)[n+]2ccccc2)c1	–	inconclusive: 14.1 µM [falling, partial curve, poor fit]
COc1cc(OC)cc(C(=O)NNC(=O)c2ccc3c(c2)OCCO3)c1	–	inconclusive: 23.1 µM [falling, partial curve]
CCOC(=O)C1CCCN(S(=O)(=O)c2ccc(Br)c(OC)c2)C1 (centres undefined)	inconclusive: -1.59%	–
COc1ccc(C(=O)COC(=O)CCC(=O)c2cccs2)cc1	inconclusive: 12.6%	–
C=CCOc1ccc(C2C(C#N)=C(N)N(N(C)C)C3=C2C(=O)CCC3)cc1 (centres undefined)	inactive: 0.589%	–
CN(Cc1ccccc1)C(=O)c1ncn(Cc2ccccc2)c1C(=O)N(C)Cc1ccccc1	inactive: -3.7%	–
CCC(c1nnnn1Cc1ccco1)N(Cc1cc2cc(OC)ccc2[nH]c1=O)C1CCCCC1 (centres undefined)	inconclusive: 3.26%	–
Cc1c(NC(=O)CSc2ccc(Cl)cc2)cccc1-c1nc2cc(Cl)ccc2o1	inconclusive: 5.53%	–
O=C(CSc1nc2c(c(=O)[nH]1)CCC2)Nc1cccc(F)c1	inactive: -27.3%	–
Cc1cccc(N2CCN(C(=O)CSCc3c(C)noc3C)CC2)c1C	inactive: -8.52%	–
